Assay results published in US8853245B2, “Orally bioavailable dabigatran prodrugs for the treatment of diseases” (Dritte Patentportfolio Beteiligungsgesellschaft mbH & Co. KG, priority 2011, dated 2014).
At least one structure is not confirmed: it was looked up by name or label, or the drawing left a doubt.

Assay: Stability analysis at various pH values (phosphate buffer, HPLC)
Format: physicochemical
Conditions: 0.2 mM in 50 mM potassium phosphate buffer
Protocol: A 0.2 mM solution of dabigatran amidoxime succinic acid ester (1) was prepared in 50 mM of a potassium phosphate buffer for the stability analyses. The examination took place at pH values of 2.0, 4.0, 6.3, 7.4 and 9.0. One sample was taken and immediately analyzed by HPLC every 30 min over a period of 360 min.

CCOC(=O)CCN(C(=O)c1ccc2c(c1)nc(CNc1ccc(/C(N)=N/OC(=O)CCC(=O)O)cc1)n2C)c1ccccn1
succinyl ester cleavage (pH 7.4, period of 360 min): about 40% | succinyl ester cleavage (pH 9.0, period of 360 min): about 25%
